Some results were stated once for a whole list of compounds, not compound by compound.
Molecular target: recombinant human AMPK complex 1 (containing α1β1γ1) (Homo sapiens, UniProt Q13131+Q9Y478)
Experiment: In vitro AMPK activation assay ([…])
Assay type: biochemical
Conditions: recombinant human AMPK complex 1 (α1β1γ1)
Description: The recombinant human AMPK complex 1 (containing α1β1γ1) was obtained from baculovirus expression system. Recombinant viruses were generated by cotransfection of AMPK/pBacPak9 clones with Baculogold baculovirus DNA (Pharmingen) in spodoptera frugiperda 21 cells according to the manufacturer's instructions. Each round of virus amplification was performed for 5 days in Grace's medium containing 10% serum. Virus that had been subjected to three rounds of amplification was used for all protein production procedures. To express the AMPK complex, sf21 cells were adapted to serum free medium (SF900 II, Invitrogen) by sequential dilution from serum containing stocks into SF900II medium and maintained in shaker flasks at 90 rpm at 27° C. The recombinant AMPK enzyme complex was produced by triple infection, one recombinant virus for each of the subunits, in sf21 cells under serum free conditions. Cells were infected in log phase, 1×10^6 cells/ml, at a multiplicity of infection of ˜5. Cells were harvested by centrifugation at 10,000×g for 15 minutes after 72 hours of infection with viruses. The insect cell pellet from 2 liters of culture was resuspended in 50 ml lysis buffer (20 mM Tris-HCl, 50 mM NaCl, 50 mM NaF, 30 mM Na PPi, 0.25 M sucrose, 10 mM ZnCl2, 2 mM DTT, 0.4 mg/ml digitonin) and subjected to two cycles of freeze-thaw lysis in a dry-ice ethanol bath. Insoluble material was removed by centrifugation at 10,000×g and the supernatant was fractionated with use of polyethylene glycol (PEG). The protein fraction precipitating between 2.5 and 6% PEG was used for further purification using a Blue-Sepharose step (Zhou et al, J. Clin. Invest. 108, 1167-1174, 2001).
The total in vitro AMPK activation assay volume is 50 μl in a 96-well plate. The reaction mixture contained 100 μM ATP (0.5 μCi ^33P-ATP per reaction), and 50 μM SAMS ([…]) in a buffer (20 mM HEPES, pH 7.0, 5 mM MgCl2, 0.01% Brij35). The reaction was initiated with addition of the enzyme. After 30-minute incubation at 30° C., the reaction was stopped by addition of 80 μl 1% H3PO4. Aliquots (100 μl) were transferred to 96-well MultiScreen plates (MAPHNOB50; Millipore Corp., Bedford, Mass., USA). The plate was washed three times with 1% H3PO4 followed by detection in a Top-count. The counts per minute from the basal activity (the reaction without activator) was subtracted from each well and the data were expressed as % maximum AMP activation followed by EC50 calculation.

Chains of the proteins cited; added tags and fusions are not shown. Lines headed by an entry give the natural chain unless they say otherwise; changes in a name come on top.
UniProt Q13131: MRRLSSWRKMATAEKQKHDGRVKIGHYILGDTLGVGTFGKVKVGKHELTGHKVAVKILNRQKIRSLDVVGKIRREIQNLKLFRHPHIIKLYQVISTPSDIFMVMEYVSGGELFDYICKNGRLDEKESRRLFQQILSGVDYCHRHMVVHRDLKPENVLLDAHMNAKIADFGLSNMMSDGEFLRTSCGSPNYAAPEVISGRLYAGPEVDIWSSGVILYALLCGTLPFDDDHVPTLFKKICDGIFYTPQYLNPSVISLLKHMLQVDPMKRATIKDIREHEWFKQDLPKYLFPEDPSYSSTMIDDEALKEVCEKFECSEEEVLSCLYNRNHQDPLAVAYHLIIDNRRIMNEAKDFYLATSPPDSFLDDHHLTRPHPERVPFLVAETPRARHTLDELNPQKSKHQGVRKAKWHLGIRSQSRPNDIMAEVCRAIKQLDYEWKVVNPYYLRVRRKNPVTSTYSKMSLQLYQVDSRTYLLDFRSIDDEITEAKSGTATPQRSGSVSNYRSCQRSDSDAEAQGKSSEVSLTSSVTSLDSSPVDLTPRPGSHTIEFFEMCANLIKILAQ
UniProt Q9Y478: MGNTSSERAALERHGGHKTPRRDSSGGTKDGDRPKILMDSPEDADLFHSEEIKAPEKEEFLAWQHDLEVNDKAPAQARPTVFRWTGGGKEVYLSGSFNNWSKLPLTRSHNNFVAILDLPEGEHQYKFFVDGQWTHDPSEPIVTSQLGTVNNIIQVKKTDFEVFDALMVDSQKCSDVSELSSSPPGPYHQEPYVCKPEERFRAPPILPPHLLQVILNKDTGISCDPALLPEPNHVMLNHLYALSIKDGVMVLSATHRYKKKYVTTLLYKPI

`O=C(O)CSc1nc2cc(-c3ccc4c(c3)OCO4)c(Cl)cc2[nH]1` [Example 3, (5-1,3-benzo-dioxol-5-yl-6-chloro-1H-benzimidazol-2-ylsulfanyl)-acetic acid] was tested, and the EC50 was < 10 µM.
For `O=C(O)CSc1nc2cc(-c3cccc(F)c3)c(Cl)cc2[nH]1` [Example 4, [6-chloro-5-(3-fluoro-phenyl)-1H-benzimidazol-2-ylsulfanyl]-acetic acid], the EC50 was < 10 µM.
With `O=C(O)CSc1nc2cc(-c3cc(F)cc(F)c3)c(Cl)cc2[nH]1` [Example 5, [6-chloro-5-(3,5-difluoro-phenyl)-1H-benzimidazol-2-ylsulfanyl]-acetic acid] the EC50 was < 10 µM.
In the case of `O=C(O)CSc1nc2cc(-c3ccc(-c4ccccc4O)cc3)c(Cl)cc2[nH]1` [Example 6, 2-(6-chloro-5-(2′-hydroxybiphenyl-4-yl)-1H-benzo[d]imidazol-2-ylthio)acetic acid], the EC50 is reported as < 10 µM.
In the case of `CC(=O)NCc1ccc(-c2cc3nc(SCC(=O)O)[nH]c3cc2Cl)cc1` [Example 7, 2-(6-(4-(acetamido-methyl)phenyl)-5-chloro-1H-benzo[d]-imidazol-2-ylthio)-acetic acid], the EC50 is reported as < 10 µM.
With `O=C(O)CSc1nc2cc(-c3ccc(O)cc3)c(Cl)cc2[nH]1` [Example 8, 2-(6-chloro-5-(4-hydroxyphenyl)-1H-benzo[d]imidazol-2-ylthio)acetic acid] the EC50 was < 10 µM.
In the case of `O=C(O)CSc1nc2cc(-c3ccc(CO)cc3)c(Cl)cc2[nH]1` [Example 9, 2-(6-chloro-5-(4-(hydroxymethyl)phenyl)-1H-benzo[d]-imidazol-2-ylthio)-acetic acid], the EC50 is reported as < 10 µM.
In the case of `Nc1ccccc1C#Cc1cc2nc(SCC(=O)O)[nH]c2cc1Cl` [Example 10, 2-(5-((2-amino-phenyl)ethynyl)-6-chloro-1H-benzo[d]-imidazol-2-ylthio)-acetic acid], the EC50 is reported as < 10 µM.
For `O=C(O)CSc1nc2cc(-c3ccc4cn[nH]c4c3)c(Cl)cc2[nH]1` [Example 11, 2-(6-chloro-5-(1H-indazol-6-yl)-1H-benzo[d]imidazol-2-ylthio)acetic acid], the EC50 was < 10 µM.
For `COc1ccc(-c2cc3nc(SCC(=O)O)[nH]c3cc2Cl)cn1` [Example 12, 2-(6-chloro-5-(6-methoxypyridin-3-yl)-1H-benzo[d]imidazol-2-ylthio)acetic acid], the EC50 was < 10 µM.
With `O=C(O)CSc1nc2cc(-c3cc4ccccc4o3)c(Cl)cc2[nH]1` [Example 13, 2-(5-(benzofuran-2-yl)-6-chloro-1H-benzo[d]imidazol-2-ylthio)acetic acid] the EC50 was < 10 µM.
In the case of `O=C(O)CSc1nc2cc(-c3csc4ccccc34)c(Cl)cc2[nH]1` [Example 14, 2-(5-(benzo[b]-thiophen-3-yl)-6-chloro-1H-benzo[d]-imidazol-2-ylthio)-acetic acid], the EC50 is reported as < 10 µM.
`O=C(O)CSc1nc2cc(-c3ccc(-n4cccn4)cc3)c(Cl)cc2[nH]1` [Example 15, 2-(5-(4-(1H-pyrazol-1-yl)phenyl)-6-chloro-1H-benzo[d]imidazol-2-ylthio)acetic acid] was tested, and the EC50 was < 10 µM.
In the case of `O=C(O)CSc1nc2cc(-c3ccc(-c4ccn[nH]4)cc3)c(Cl)cc2[nH]1` [Example 16, 2-(5-(4-(1H-pyrazol-5-yl)phenyl)-6-chloro-1H-benzo[d]imidazol-2-ylthio)acetic acid], the EC50 is reported as < 10 µM.
In the case of `CC(=O)Nc1cccc(C#Cc2cc3nc(SCC(=O)O)[nH]c3cc2Cl)c1` [Example 17, 2-(5-((3-acetamido-phenyl)ethynyl)-6-chloro-1H-benzo[d]-imidazol-2-ylthio)-acetic acid], the EC50 is reported as < 10 µM.
`O=C(O)CSc1nc2cc(C#Cc3ccc(CO)cc3)c(Cl)cc2[nH]1` [Example 18, [6-Chloro-5-(4-hydroxymethyl-phenylethynyl)-1H-benzoimidazol-2-ylsulfanyl]-acetic acid] was tested, and the EC50 was < 10 µM.
In the case of `CS(=O)(=O)c1ccc(C#Cc2cc3nc(SCC(=O)O)[nH]c3cc2Cl)cc1` [Example 19, [6-chloro-5-(4-methanesulfonyl-phenyl-ethynyl)-1H-benzo-imidazol-2-yl-sulfanyl]-acetic acid], the EC50 is reported as < 10 µM.

Reference: patent publication US8563746B2, “Cyclic benzimidazole derivatives useful as anti-diabetic agents” (Merck Sharp & Dohme Corp, priority 2008, dated 2013)
